Results are given in words; binding and its absence hold for the method and conditions named. Binding seen in cells or lysates may run through a third protein. Some results given as binding are weak or reduced against the parent protein; the word gives no strength. Where a sequence is shown, tags or fusion partners need not be part of it.
B1: Kremen1 (Krm1), full length, Flag-tagged or HA-tagged (receptor, UniProt Q99N43 20-473, looked up)
chain: ARPAPGPRSGPECFTANGADYRGTQSWTALQGGKPCLFWNETFQHPYNTLKYPNGEGGLGEHNYCRNPDGDVSPWCYVAEHEDGVYWKYCEIPACQMPGNLGCYKDHGNPPPLTGTSKTSNKLTIQTCISFCRSQRFKFAGMESGYACFCGNNPDYWKHGEAASTECNSVCFGDHTQPCGGDGRIILFDTLVGACGGNYSAMAAVVYSPDFPDTYATGRVCYWTIRVPGASRIHFNFTLFDIRDSADMVELLDGYTHRVLVRLSGRSRPPLSFNVSLDFVILYFFSDRINQAQGFAVLYQATKEEPPQERPAVNQTLAEVITEQANLSVSAAHSSKVLYVITPSPSHPPQTAPGSHSWAPSVGANSHRVEGWTVYGLATLLILTVTAVVAKILLHVTFKSHRVPASGDLRDCRQPGASGDIWTIFYEPSTTISIFKKKLKGQSQQDDRNPLVSD
notes: Kremen1 (Krm1), transmembrane receptor, full length; Two differently tagged copies of the same full-length protein (Flag-Krm1, HA-Krm1), each with ONE tag, written as one molecule for the self-association; In rows with truncated Krm1 or with Krm2 the Flag-tagged copy is the bait; Vector pCAG-IRES-EGFP or pCS2; also called Flag-Krm1; HA-Krm1; source: HEK293T, transfected, in lysate; not shown: …
B2: HA-Krm2, full-length Kremen2 (receptor, UniProt Q8K1S7 25-461)
chain: GSLHSPGLSECFQVNGADYRGHQNYTGPRGAGRPCLFWDQTQQHSYSSASDPQGRWGLGAHNFCRNPDGDVQPWCYVAETEEGIYWRYCDIPTCHMPGYLGCFVDSGAPPALSGPSGTSTKLTVQVCLRFCRMKGYQLAGVEAGYACFCGSESDLARGRPAPATDCDQICFGHPGQLCGGDGRLGIYEVSVGSCQGNWSAPQGVIYSPDFPDEYGPDRNCSWVLGQLGAVLELTFRLFELADSRDRLELRDVSSGNLLRAFDGAHPPPPGPLRLRTAALLLTFRSDARGHAQGFALTYRGLQDTVEGRASPEDSTESLAGDPDGANASCSPKPGAAQASIGARVFSTVTAFSVLLLLLLSLLRLLRRRSCLLAPGKGSLAMGPSRGPGRSWAVWYRRPRGVALPCPPGDSQAEGPAAGYRPLSASSQSSLRSLVSAL
B3: HA-Krm2secECD, secreted ectodomain of Krm2 (lacks the transmembrane and intracellular domains) (domain or fragment, UniProt Q8K1S7 25-363)
chain: GSLHSPGLSECFQVNGADYRGHQNYTGPRGAGRPCLFWDQTQQHSYSSASDPQGRWGLGAHNFCRNPDGDVQPWCYVAETEEGIYWRYCDIPTCHMPGYLGCFVDSGAPPALSGPSGTSTKLTVQVCLRFCRMKGYQLAGVEAGYACFCGSESDLARGRPAPATDCDQICFGHPGQLCGGDGRLGIYEVSVGSCQGNWSAPQGVIYSPDFPDEYGPDRNCSWVLGQLGAVLELTFRLFELADSRDRLELRDVSSGNLLRAFDGAHPPPPGPLRLRTAALLLTFRSDARGHAQGFALTYRGLQDTVEGRASPEDSTESLAGDPDGANASCSPKPGAAQAS
B4: full-length untagged Krm2 (receptor, UniProt Q8K1S7 25-461)
chain: B2 chain
B5: HA-Krm1secECD, secreted ectodomain of Krm1 (lacks the transmembrane and intracellular domains) (domain or fragment, UniProt Q99N43 21-392, looked up)
chain: RPAPGPRSGPECFTANGADYRGTQSWTALQGGKPCLFWNETFQHPYNTLKYPNGEGGLGEHNYCRNPDGDVSPWCYVAEHEDGVYWKYCEIPACQMPGNLGCYKDHGNPPPLTGTSKTSNKLTIQTCISFCRSQRFKFAGMESGYACFCGNNPDYWKHGEAASTECNSVCFGDHTQPCGGDGRIILFDTLVGACGGNYSAMAAVVYSPDFPDTYATGRVCYWTIRVPGASRIHFNFTLFDIRDSADMVELLDGYTHRVLVRLSGRSRPPLSFNVSLDFVILYFFSDRINQAQGFAVLYQATKEEPPQERPAVNQTLAEVITEQANLSVSAAHSSKVLYVITPSPSHPPQTAPGSHSWAPSVGANSHRVEGWT
B6: Dickkopf1 (Dkk1) (ligand, UniProt O54908 32-272)
chain: TLNSVLINSNAIKNLPPPLGGAGGQPGSAVSVAPGVLYEGGNKYQTLDNYQPYPCAEDEECGSDEYCSSPSRGAAGVGGVQICLACRKRRKRCMRHAMCCPGNYCKNGICMPSDHSHFPRGEIEESIIENLGNDHNAAAGDGYPRRTTLTSKIYHTKGQEGSVCLRSSDCAAGLCCARHFWSKICKPVLKEGQVCTKHKRKGSHGLEIFQRCYCGEGLACRIQKDHHQASNSSRLHTCQRH

Columns and labels:
[1] = biological target: T1, Kremen1 (Krm1), full length, Flag-tagged or HA-tagged (UniProt Q99N43); experiment: co-IP; competition: HEK293T cells transfected with Flag-Krm1, HA-Krm1 and either GFP or Dkk1; anti-Flag immunoprecipitation, anti-HA western blot
T1 sequence: B1 chain

[2] = biological target: T1, Kremen1 (Krm1), full length, Flag-tagged or HA-tagged; experiment: co-IP; competition: HEK293T cells transfected with Flag-Krm1, HA-Krm1 and either GFP, LRP6, Krm2 or EpCAM; anti-Flag immunoprecipitation, anti-HA western blot
[3] = biological target: T1, Kremen1 (Krm1), full length, Flag-tagged or HA-tagged; experiment: co-IP; HEK293T cells co-transfected, lysed after 24 h in 25 mM Tris pH7.4, 150 mM NaCl, 5 mM EDTA, 1% Triton-X100, 10% Glycerol; anti-Flag immunoprecipitation (Dynabeads proteinG), anti-HA western blot

Binder	binding [1]	binding [2]	binding [3]
B1	binds	binds	binds
B2	–	–	binds
B3	–	–	binds
B4	–	binds	–
B5	–	–	binds
B6	binds	–	–

Source: article PMC6494814, “Kremen1-induced cell death is regulated by homo- and heterodimerization” (Cell Death Discovery, 2019)
